The text below walks through data of article PMC5075406.

Protein sequences, listed by entry. Tags and fused reporters are not part of them. Lines headed by an entry give the natural chain unless they say otherwise; changes in a name come on top. Residues count along the entry.
UniProt Q04721, residues 26-2471: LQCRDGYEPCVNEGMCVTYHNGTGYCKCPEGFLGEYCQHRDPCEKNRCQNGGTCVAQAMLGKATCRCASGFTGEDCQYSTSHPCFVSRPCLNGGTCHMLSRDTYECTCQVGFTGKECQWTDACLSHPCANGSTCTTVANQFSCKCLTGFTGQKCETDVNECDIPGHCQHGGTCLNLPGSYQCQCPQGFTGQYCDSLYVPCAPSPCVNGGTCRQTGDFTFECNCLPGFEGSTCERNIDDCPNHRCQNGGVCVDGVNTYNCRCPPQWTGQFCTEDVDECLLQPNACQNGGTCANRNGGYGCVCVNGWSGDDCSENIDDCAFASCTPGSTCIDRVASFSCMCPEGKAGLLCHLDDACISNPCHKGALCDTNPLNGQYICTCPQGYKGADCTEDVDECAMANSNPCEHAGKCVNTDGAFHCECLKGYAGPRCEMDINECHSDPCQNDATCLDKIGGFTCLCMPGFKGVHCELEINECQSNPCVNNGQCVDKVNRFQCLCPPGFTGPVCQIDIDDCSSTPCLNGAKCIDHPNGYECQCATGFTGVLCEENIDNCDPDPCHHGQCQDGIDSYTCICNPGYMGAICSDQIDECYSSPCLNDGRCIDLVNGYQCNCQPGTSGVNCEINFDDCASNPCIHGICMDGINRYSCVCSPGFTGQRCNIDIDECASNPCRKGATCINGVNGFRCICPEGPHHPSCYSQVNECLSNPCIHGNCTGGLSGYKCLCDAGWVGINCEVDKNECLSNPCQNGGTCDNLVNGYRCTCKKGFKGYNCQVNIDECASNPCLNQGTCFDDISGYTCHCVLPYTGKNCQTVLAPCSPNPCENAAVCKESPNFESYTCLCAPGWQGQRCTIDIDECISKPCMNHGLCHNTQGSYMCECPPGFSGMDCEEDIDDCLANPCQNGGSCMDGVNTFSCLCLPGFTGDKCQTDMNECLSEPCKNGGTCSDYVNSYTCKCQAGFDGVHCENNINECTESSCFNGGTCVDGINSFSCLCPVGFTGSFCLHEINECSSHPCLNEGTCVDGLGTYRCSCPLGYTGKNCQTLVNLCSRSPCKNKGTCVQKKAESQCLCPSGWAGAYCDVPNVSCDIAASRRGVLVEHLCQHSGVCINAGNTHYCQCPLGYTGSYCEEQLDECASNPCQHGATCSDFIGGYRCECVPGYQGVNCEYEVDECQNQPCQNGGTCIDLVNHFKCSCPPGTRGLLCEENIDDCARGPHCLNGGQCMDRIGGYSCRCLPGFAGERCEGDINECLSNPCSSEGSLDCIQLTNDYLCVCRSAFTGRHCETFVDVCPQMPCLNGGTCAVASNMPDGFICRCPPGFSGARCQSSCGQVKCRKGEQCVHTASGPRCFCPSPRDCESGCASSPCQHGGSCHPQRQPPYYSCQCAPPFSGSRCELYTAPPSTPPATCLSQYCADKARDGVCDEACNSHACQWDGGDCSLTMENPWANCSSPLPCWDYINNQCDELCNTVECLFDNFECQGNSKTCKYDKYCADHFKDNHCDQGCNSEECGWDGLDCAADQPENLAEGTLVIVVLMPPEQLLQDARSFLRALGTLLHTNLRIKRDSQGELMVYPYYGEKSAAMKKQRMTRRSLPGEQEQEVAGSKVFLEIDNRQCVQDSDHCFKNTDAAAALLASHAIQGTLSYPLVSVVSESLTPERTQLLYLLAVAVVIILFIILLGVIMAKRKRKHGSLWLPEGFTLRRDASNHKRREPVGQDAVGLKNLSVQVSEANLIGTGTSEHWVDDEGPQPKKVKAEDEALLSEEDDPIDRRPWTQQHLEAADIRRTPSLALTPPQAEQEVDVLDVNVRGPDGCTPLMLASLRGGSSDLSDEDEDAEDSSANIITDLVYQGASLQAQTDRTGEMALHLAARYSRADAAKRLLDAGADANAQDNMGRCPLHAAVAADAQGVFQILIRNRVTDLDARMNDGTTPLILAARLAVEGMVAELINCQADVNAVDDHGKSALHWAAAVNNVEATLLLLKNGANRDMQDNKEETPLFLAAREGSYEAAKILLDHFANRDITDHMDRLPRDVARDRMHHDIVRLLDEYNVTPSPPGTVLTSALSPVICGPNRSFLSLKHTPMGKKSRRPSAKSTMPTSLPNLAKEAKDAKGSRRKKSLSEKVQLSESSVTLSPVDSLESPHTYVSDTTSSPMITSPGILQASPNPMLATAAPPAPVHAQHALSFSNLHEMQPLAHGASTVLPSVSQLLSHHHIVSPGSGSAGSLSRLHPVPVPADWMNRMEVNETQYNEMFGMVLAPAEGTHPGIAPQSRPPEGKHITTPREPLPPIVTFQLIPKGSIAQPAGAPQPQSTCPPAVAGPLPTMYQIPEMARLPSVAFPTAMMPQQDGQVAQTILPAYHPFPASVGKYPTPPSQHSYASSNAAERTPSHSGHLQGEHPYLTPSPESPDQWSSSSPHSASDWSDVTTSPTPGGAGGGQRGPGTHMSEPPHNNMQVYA
UniProt P46531: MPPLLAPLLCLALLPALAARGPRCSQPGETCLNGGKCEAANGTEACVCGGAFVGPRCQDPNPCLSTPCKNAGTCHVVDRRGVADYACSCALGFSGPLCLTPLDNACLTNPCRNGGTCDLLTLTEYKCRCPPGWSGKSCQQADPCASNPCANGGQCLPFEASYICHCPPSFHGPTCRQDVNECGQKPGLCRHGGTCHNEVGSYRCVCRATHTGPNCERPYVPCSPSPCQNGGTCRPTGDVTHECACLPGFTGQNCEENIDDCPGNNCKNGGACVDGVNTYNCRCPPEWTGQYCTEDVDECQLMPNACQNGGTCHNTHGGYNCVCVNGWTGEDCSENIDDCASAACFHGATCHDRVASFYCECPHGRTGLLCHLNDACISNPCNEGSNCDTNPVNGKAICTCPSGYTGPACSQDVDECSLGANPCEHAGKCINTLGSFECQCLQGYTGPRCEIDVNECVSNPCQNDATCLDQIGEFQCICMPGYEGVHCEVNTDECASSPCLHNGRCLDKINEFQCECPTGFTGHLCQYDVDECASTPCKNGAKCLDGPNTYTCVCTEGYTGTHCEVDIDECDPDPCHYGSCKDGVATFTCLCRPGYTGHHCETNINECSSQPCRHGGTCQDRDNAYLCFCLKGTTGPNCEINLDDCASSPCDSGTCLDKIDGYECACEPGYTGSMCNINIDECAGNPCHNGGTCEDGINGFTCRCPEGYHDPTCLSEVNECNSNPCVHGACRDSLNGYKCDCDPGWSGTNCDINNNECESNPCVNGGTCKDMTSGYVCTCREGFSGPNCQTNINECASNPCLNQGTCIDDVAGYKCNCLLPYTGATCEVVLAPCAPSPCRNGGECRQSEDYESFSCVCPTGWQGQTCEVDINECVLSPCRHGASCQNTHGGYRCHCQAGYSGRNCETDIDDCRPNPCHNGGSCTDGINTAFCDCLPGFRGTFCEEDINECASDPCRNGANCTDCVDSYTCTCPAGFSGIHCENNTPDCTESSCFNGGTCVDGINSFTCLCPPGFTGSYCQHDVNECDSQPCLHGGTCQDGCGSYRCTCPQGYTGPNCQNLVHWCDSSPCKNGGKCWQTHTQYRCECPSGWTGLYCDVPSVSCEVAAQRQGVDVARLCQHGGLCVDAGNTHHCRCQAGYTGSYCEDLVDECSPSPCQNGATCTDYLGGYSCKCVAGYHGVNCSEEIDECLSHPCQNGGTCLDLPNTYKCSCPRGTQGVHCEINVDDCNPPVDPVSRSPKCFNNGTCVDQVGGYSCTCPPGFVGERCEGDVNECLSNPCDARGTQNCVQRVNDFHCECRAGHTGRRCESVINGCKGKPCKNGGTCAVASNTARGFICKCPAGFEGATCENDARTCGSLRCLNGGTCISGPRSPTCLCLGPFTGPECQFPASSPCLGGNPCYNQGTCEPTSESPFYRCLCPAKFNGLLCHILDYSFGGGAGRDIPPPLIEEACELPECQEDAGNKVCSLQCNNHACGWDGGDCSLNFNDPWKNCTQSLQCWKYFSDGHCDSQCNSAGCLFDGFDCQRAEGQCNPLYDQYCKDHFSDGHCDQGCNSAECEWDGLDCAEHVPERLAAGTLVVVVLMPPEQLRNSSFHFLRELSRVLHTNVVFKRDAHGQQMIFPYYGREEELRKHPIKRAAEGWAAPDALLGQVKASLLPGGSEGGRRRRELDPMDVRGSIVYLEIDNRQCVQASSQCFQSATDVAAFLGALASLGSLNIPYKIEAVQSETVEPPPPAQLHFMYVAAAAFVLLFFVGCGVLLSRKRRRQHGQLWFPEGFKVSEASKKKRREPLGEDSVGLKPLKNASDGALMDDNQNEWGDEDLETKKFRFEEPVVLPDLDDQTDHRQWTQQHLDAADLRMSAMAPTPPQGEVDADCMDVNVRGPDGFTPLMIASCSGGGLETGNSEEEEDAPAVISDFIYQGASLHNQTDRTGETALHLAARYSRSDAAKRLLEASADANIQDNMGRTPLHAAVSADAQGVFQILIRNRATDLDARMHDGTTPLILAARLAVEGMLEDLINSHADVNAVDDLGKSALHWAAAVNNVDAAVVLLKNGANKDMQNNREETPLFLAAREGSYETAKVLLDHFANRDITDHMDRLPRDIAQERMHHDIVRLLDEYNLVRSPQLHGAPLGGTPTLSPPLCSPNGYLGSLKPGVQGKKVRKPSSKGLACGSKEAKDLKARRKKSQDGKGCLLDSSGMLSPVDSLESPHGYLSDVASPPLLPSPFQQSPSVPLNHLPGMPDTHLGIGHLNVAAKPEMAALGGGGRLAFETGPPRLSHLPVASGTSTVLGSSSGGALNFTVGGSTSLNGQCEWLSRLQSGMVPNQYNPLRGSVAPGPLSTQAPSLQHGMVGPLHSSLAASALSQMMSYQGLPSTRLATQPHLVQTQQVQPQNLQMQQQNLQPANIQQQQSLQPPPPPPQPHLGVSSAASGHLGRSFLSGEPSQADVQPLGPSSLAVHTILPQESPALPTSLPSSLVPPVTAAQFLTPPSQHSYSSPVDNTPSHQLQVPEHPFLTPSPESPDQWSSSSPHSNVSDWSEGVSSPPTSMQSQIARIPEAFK
UniProt P28799, residues 18-593: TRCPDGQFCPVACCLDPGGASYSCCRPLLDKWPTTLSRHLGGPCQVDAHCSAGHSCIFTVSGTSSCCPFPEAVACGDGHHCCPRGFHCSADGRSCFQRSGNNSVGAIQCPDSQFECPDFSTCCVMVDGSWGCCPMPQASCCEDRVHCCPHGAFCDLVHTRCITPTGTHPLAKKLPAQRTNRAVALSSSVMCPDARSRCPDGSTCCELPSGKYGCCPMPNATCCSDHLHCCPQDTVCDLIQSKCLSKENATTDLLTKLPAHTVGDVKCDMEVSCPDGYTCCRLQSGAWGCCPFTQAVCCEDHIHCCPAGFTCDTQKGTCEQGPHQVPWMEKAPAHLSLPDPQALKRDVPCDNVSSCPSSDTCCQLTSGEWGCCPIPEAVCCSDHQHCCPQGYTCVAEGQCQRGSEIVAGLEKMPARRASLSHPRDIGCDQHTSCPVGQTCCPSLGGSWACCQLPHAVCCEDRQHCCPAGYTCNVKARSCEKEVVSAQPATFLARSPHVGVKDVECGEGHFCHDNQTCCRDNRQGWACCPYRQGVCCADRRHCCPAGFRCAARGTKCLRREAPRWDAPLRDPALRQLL

No constants are given. Whether binding was seen depends on the method and setting. Binding seen in cells or lysates may run through a third protein. Some binding calls cover weakened binding; strength is not graded here.

Experiment [1] has as its target Flag-tagged human Notch4 (human) (UniProt Q99466). Briefly: co-IP; HEK293 cells transiently co-transfected with Flag-tagged human Notch receptors and non-tagged human progranulin; lysate supernatants; IP with anti-Flag or anti-progranulin (N19) on Immunosorb A overnight at 4 °C; beads washed 3x in lysis buffer; immunoblot with anti-Flag and anti-progranulin.
In experiment [2] the target is Flag-tagged human Notch3 (human) (UniProt Q9UM47). The experiment is described as above.
For experiment [3], the target named is Flag-tagged human Notch2 (human) (UniProt Q04721). Described as above.
The target of experiment [4] is Flag-tagged human Notch1 (human) (UniProt P46531). The description is as above.
Experiment [5] deals with full-length non-tagged human progranulin (human) (UniProt P28799). The description is as above.
Experiment [6] deals with hNotch1-ECD-V5 (human) (UniProt P46531). Nature of the experiment: co-IP; HEK293 cells transiently co-transfected with Notch1-ECD-V5 or Notch1-ICD-V5 and progranulin-Flag (human proteins; repeated with the mouse proteins); lysate supernatants; IP with anti-Flag or anti-V5 on Immunosorb A overnight at 4 °C; immunoblot with anti-V5 and anti-Flag.
For experiment [7], the target named is Flag-tagged full-length human progranulin (human) (UniProt P28799). Described as above.

As for “full-length non-tagged human progranulin (from UniProt P28799 18-593)”, the binding entry in experiment [1], in experiment [2], in experiment [3] and in experiment [4] was “binds” in each case. As for “Flag-tagged human Notch2 (from UniProt Q04721 26-2471) (receptor)”, the binding entry in experiment [5] is given as “binds”. On to “Flag-tagged human Notch4 (from UniProt Q99466 24-2003) (receptor)”, for which the binding result in experiment [5] is reported as “binds”. Take “Flag-tagged human Notch1 (from UniProt P46531 19-2555) (receptor)”: the binding entry in experiment [5] is listed as “binds”.

For the substance “Flag-tagged full-length human progranulin (from UniProt P28799 18-593)”, in experiment [6], the binding result is on record as “binds”. Consider “hNotch1-ECD-V5 (from UniProt P46531 19-1735) (domain or fragment)”, for which the binding result in experiment [7] is on record as “binds”. In the case of “Flag-tagged human Notch3 (from UniProt Q9UM47 40-2321) (receptor)”, the binding result in experiment [5] was “binds”.
